Measurements taken from article PMC6395706.
Results are given in words; binding and its absence hold for the method and conditions named. In cells and extracts the contact can be indirect. A yes stands for co-enrichment or nearness to the bait. Other partners may have been found. For some assays here: No binding means not detected with the bait. Blank lines part the entries; values can stand above or below the binder they belong to.

How the values were obtained:
[1] = molecular target: PTEN-L:EGFP (human) (UniProt P60484); assay: affinity purification with mass spectrometry; GFP-Trap_M pull-down of EGFP-tagged PTEN variants from the nuclear fraction of replaced primary neurons treated with 50 µM glutamate for 60 min; 1 h at 4 °C; washes in TBS with 0.05% NP-40; interaction defined by significant enrichment against an EGFP control; n = 4
[2] = molecular target: PTEN:EGFP (not stated (the only PTEN cDNA named is the synthesised human PTEN-L)) (UniProt P60484); assay: as above
[3] = molecular target: PTEN-L:EGFP (human) (UniProt P60484); assay: affinity purification with mass spectrometry; GFP-Trap_M pull-down of EGFP-tagged PTEN variants from the purified cytosolic fraction of replaced primary neurons treated with 50 µM glutamate for 60 min; 1 h at 4 °C; washes in TBS with 0.05% NP-40; interaction defined by significant enrichment against an EGFP control; n = 4
[4] = molecular target: PTEN:EGFP (not stated (the only PTEN cDNA named is the synthesised human PTEN-L)) (UniProt P60484); assay: as above
[5] = molecular target: PTEN-L:EGFP (human) (UniProt P60484); assay: condition: only PBS-treated neurons, without glutamate; affinity purification with mass spectrometry; GFP-Trap_M pull-down of EGFP-tagged PTEN variants from the purified cytosolic fraction of replaced primary neurons treated with PBS for 60 min; 1 h at 4 °C; washes in TBS with 0.05% NP-40; interaction defined by significant enrichment against an EGFP control; n = 4

B1: Maz (protein, UniProt P56671 1-477)
chain: MFPVFPCTLLAPPFPVLGLDSRGVGGLMNSFPPPQGHAQNPLQVGAELQSRFFASQGCAQSPFQAAPAPPPTPQAPAAEPLQVDLLPVLAAAQESAAAAAAAAAAAAAVVTAPPAPAAASTVDTAALKQPPAPPPPPPAVSAPAAEAAPPAAAATIAAAAATAVVAPTSTVAVAPVASVLEKKTKSKGPYICALCAKEFKNGYNLRRHEAIHTGAKAGRVPSGAMKMPTMVPLSLLSVPQLSGASGGGGEAGAGGGTTAVAAGGVVTTTASGKRIRKNHACEMCGKAFRDVYHLNRHKLSHSDEKPYQCPVCQQRFKRKDRMSYHVRSHDGAVHKPYNCSHCGKSFSRPDHLNSHVRQVHSTERPFKCEKCEAAFATKDRLRAHTVRHEEKVPCHVCGKMLSSAYISDHMKVHSQGPHHVCELCNKGTGEVCPMAAAAAAAAAAAAAVVAAPPTAVGSLSGAEGVPVSSQPLPSQPW
binding [1]: binds | binding [2]: no binding

binding [3]: binds | binding [4]: no binding | binding [5]: no binding
B2: Hnrnph2 (protein, UniProt P70333 1-449)
chain: MMLSTEGREGFVVKVRGLPWSCSAEEVMRFFSDCKIQNGTSGVRFIYTREGRPSGEAFVELESEDEVKLALKKDRETMGHRYVEVFKSNSVEMDWVLKHTGPNSPDTANDGFVRLRGLPFGCSKEEIVQFFSGLEIVPNGMTLPVDFQGRSTGEAFVQFASQEIAEKALKKHKERIGHRYIEIFKSSRAEVRTHYDPPRKLMTMQRPGPYDRPGAGRGYNSIGRGAGFERMRRGAYGGGYGGYDDYGGYNDGYGFGSDRFGRDLNYCFSGMSDHRYGDGGSSFQSTTGHCVHMRGLPYRATENDIYNFFSPLNPMRVHIEIGPDGRVTGEADVEFATHEDAVAAMAKDKANMQHRYVELFLNSTAGTSGGAYDHSYVELFLNSTAGASGGAYGSQMMGGMGLSNQSSYGGPASQQLSGGYGGGYGGQSSMSGYDQVLQENSSDYQSNLA

binding [3]: binds | binding [4]: no binding | binding [5]: no binding
B3: Farsa (protein, UniProt Q8C0C7 1-508)
chain: MADNPVLELLLRRLEVADGGLDSAELATQLGVEHQAVVGAVKSLQALGEVIEAELRSTKCWELTTEGEEIAREGSHEARVFRSIPLEGLVQSELMHLPSGKVGFSKAMSNKWIRVDKSAADGPRVFRVVDSIEDEVQKRLQLVQAGQAEKLAEKERNELRKRKLLTEVILKTYWVSKGKAFSTSVSKQEAELSPEMISSGSWRDRPFKPYNFSARGVLPDSGHLHPLLKVRSQFRQIFLEMGFTEMPTDNFIESSFWNFDALFQPQQHPARDQHDTFFLRDPAEALQLPMGYVQRVKRTHSQGGYGSQGYKYTWKLEEARKNLLRTHTTAASARALYQLAQKKPFTPAKYFSIDRVFRNETLDATHLAEFHQIEGVIADHGLTLGHLMGVLREFFTKLGITQLRFKPAYNPYTEPSMEVFSYHQGLKKWVEVGNSGVFRPEMLLPMGLPENVSVIAWGLSLERPTMIKYGINNIRELVGHKVNLQMVYDSPVCRLDIEPRSSKTQEAA
